## Library screening results

The chains behind the UniProt entries cited, without tags or fusion partners.
UniProt E9BF75, entry or part of it: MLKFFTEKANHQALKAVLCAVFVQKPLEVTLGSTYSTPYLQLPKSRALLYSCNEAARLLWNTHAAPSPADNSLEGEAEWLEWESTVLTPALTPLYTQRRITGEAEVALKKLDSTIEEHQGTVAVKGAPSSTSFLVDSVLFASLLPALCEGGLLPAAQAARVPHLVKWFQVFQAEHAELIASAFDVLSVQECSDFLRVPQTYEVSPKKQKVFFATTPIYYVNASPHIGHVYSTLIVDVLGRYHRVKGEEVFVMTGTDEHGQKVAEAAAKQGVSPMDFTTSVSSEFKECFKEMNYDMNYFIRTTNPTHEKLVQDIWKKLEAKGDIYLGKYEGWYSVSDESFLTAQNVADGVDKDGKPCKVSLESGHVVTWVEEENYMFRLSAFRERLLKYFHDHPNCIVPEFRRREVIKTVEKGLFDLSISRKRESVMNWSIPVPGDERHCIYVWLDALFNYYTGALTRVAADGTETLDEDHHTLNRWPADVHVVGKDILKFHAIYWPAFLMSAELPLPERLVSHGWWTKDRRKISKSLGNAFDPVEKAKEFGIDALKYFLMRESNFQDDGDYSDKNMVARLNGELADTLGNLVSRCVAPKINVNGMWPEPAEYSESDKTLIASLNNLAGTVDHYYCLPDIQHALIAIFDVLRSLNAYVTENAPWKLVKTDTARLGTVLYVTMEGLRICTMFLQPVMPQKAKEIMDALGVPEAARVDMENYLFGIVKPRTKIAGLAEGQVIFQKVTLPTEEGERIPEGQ

Measurements from “University of Dundee, Small-Polar-MMV Screening Library” (2021), ChEMBL document CHEMBL3988442.

Results are percentages, as filed.
The controls that fix the scale are not given in the record; negative values are as filed.
This is an unselected part of the compounds tested.

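Primary screen of methionyl-tRNA synthetase; the read-out is not stated. Target: Methionyl-tRNA synthetase (putative), Leishmania donovani (UniProt E9BF75). The test concentration is not given. The values are filed as inhibition. Of about 68,000 compounds tested this way, about 24 (0.035%) reached 50% or more in at least one test.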

Compound	inhibition
O=C(Cn1cc(C(=O)O)ccc1=O)Nc1cc(F)ccc1F	7.532%
Cn1c(Cn2ccnc2)nnc1C1CCCN(Cc2ccncc2)C1 (stereo not given)	0%
CC(C)c1ccc(S(=O)(=O)NC2CCN(CC(F)(F)F)C2)cc1 (stereo not given)	9.756%
Cc1ccc(OCC(O)CNC(=O)C2(c3ccc(F)cc3)CC2)cc1 (stereo not given)	10.45%
CNc1nc2c(c(C(=O)N3CCCC3)n1)CN(Cc1nccn1C)CC2	13.5%
Cc1occc(=O)c1OCc1noc(C(=O)NCC(C)C)n1	10.57%
CC(C)N(C)Cc1cc(=O)n2c(n1)CN(C(=O)c1ccc[nH]1)CCC2	17.01%
CCCc1noc(C[S+]([O-])CC(=O)NCc2ccccc2)n1 (stereo not given)	3.073%
COCCNC(=O)c1cc(OC)c2ccoc2c1	19.34%
COc1ccc(OC)c(NC(=O)c2c(C)cn(C)c2CC(=O)O)c1	7.285%
C1CN(c2nc3c(c(NC4CC4)n2)CN(CC2CCOC2)CC3)CCO1 (stereo not given)	14.89%
Cc1cc(-c2cnc(N3CCCCCC3)nc2-c2cccnc2C)on1	9.061%
CC1CN(C)c2ccccc2N(C(=O)c2c[nH]c(C(C)C)n2)C1 (stereo not given)	2.687%
O=C(C[C@H]1[C@H]2CN(c3ncccn3)C[C@@H]12)Nc1cccnc1	2.92%
O=C1CN(C(=O)C2CN(c3ccc(F)cc3)CCO2)CCN1 (stereo not given)	14.6%
Cc1nn(C)c2nc(N3CCC(C(O)Cc4ccccc4)CC3)sc12 (stereo not given)	17.32%
Cc1cnn(CCNCc2nccn2CC(F)(F)F)c1	14.49%
COc1ccnc(N2CCCN(C(=O)CCc3cnn(C)c3)CC2)n1	4.381%
O=C(Cc1ccc(-n2cccn2)cc1)N1CCN2CCCCC2C1 (stereo not given)	20.28%
Cc1nccc(CNC(=O)NCC(C)Oc2ccccc2F)n1 (stereo not given)	6.944%
Cc1cccc(-c2nc(C)nn2CC(=O)NC(C)C2CC2)c1 (stereo not given)	14.53%
C=C(C)COc1cccc(C(=O)NC(C)c2nnn[nH]2)c1 (stereo not given)	0.2611%
COc1ccc(S(=O)(=O)N2CCC[C@@H]3CN(C(=O)C4CC4)C[C@@H]32)cc1	3.115%
CCS(=O)(=O)CC(=O)NC(C)c1ccc(OCCC(C)C)cc1 (stereo not given)	4.42%
OCCOc1ccc(NCc2cccnc2)cn1	1.394%
CCOCC1c2c(ncn2C(C)C)CCN1C(C)C (stereo not given)	9.408%
CN(Cc1ccco1)C1COC2(CCN(Cc3nccs3)CC2)C1 (stereo not given)	11.23%
CCCN(C(=O)CN1CCN(CC(C)O)CC1)C1=CCCCC1 (stereo not given)	1.918%
Cn1cnnc1C1CCCN1C(=O)Nc1cccc(OC(F)F)c1 (stereo not given)	12.87%
O=C(c1cccnc1N1CCCCC1)N1CCCC(n2ccnc2)C1 (stereo not given)	15.26%
CCOc1ccc(Cl)c(C(=O)N2CCN(c3ccncc3)CC2)n1	16.24%
CCNc1ncc2c(n1)CN(c1ccc(OC(F)(F)F)cc1)C2=O	6.784%
CCC(O)CN1CCN(C(=O)CN(C)c2ccc(Cl)cn2)CC1 (stereo not given)	4.061%
CSCC1CCN(C(=O)Cn2ncc(N3CCCCC3)cc2=O)CC1	15.22%
CCn1nc(C)c(CN(CCOC)C(=O)c2ccccc2N(C)C)c1C	-7.532%
Clc1ccc2c(c1)C=C(CNC1CCc3ncnn3C1)CO2 (stereo not given)	12.47%
N#Cc1ccc(CCC(=O)N2CCCC(n3cncn3)C2)cc1 (stereo not given)	7.222%
CCOc1ccc(Cc2c(O)nc(SC)n(-c3ccccc3)c2=O)cc1	0.5602%
Cc1nn(CC(=O)O)c(C)c1NS(=O)(=O)c1cc2ccccc2s1	16.52%
COc1cc2c(nn1)CCN(Cc1nc(Cc3ccccc3)no1)C2	18.9%
O=C(COC[C@]12COC[C@H]1CN(C1CCC1)C2)N1CCCC1	1.034%
Oc1cccc(CN2C[C@H]3CC[C@@H]2CN(Cc2cccnc2)C3)c1	-5.155%
COc1ccc(OCc2nc3cc4c(cc3c(=O)o2)OCCCO4)cc1	-1.511%
O=C1CC(c2ccsc2)c2sc(C(=O)O)c(-c3ccc(F)cc3)c2N1 (stereo not given)	6.422%
COc1ccccc1[C@@H]1CN(Cc2ccc3nsnc3c2)C[C@H]1C(=O)O	17.6%
CC(C)OCCCNC(=O)NCc1cccc(-n2ccnc2)c1	9.329%
Fc1cccc(-n2ccc(CN3CCCC3Cn3cncn3)n2)c1 (stereo not given)	16.87%
CN1CCC2(CC1)CN(C(=O)c1ccncc1)Cc1ccccc12	8.667%
CC(C)c1noc(C(C)N2CCN(Cc3cccnc3)CC2)n1 (stereo not given)	15.43%
Cc1cnn(CC2CN(CC(=O)Nc3ccnn3C(C)C)CCO2)c1 (stereo not given)	18.05%
CCn1cc(NC(=O)C2CCN(CC(=O)NCC(C)C)CC2)cn1	-19.83%
CN(C)CCN1C(=O)CCC12CCN(C(=O)c1cccnc1)CC2	8.418%
O=C(c1ccsc1)N1C[C@@H]2OCCN(CCN3CCCC3)[C@@H]2C1	5.97%
Fc1cnc(N2CCc3nnc(COc4ccccn4)n3CC2)nc1	12.89%
NC(=O)c1ccccc1Oc1cccc(C2CCCNC2)n1 (stereo not given)	26.58%
CS(=O)(=O)Cc1nc(CNc2ccc(F)c(F)c2)cs1	13.17%

Repeated from the top, 6 entries:

{"compound": "O=C(Cn1cc(C(=O)O)ccc1=O)Nc1cc(F)ccc1F", "inhibition": 7.532}
{"compound": "Cn1c(Cn2ccnc2)nnc1C1CCCN(Cc2ccncc2)C1", "stereo": "stereo not given", "inhibition": 0}
{"compound": "CC(C)c1ccc(S(=O)(=O)NC2CCN(CC(F)(F)F)C2)cc1", "stereo": "stereo not given", "inhibition": 9.756}
{"compound": "Cc1ccc(OCC(O)CNC(=O)C2(c3ccc(F)cc3)CC2)cc1", "stereo": "stereo not given", "inhibition": 10.45}
{"compound": "CNc1nc2c(c(C(=O)N3CCCC3)n1)CN(Cc1nccn1C)CC2", "inhibition": 13.5}
{"compound": "Cc1occc(=O)c1OCc1noc(C(=O)NCC(C)C)n1", "inhibition": 10.57}